Results: the supplement of paper PMC10849652
The list shows a part of the results.

Protein sequences, listed by entry. Tags and fused reporters are not part of them. Lines headed by an entry give the natural chain unless they say otherwise; changes in a name come on top.
UniProt Q86YV9: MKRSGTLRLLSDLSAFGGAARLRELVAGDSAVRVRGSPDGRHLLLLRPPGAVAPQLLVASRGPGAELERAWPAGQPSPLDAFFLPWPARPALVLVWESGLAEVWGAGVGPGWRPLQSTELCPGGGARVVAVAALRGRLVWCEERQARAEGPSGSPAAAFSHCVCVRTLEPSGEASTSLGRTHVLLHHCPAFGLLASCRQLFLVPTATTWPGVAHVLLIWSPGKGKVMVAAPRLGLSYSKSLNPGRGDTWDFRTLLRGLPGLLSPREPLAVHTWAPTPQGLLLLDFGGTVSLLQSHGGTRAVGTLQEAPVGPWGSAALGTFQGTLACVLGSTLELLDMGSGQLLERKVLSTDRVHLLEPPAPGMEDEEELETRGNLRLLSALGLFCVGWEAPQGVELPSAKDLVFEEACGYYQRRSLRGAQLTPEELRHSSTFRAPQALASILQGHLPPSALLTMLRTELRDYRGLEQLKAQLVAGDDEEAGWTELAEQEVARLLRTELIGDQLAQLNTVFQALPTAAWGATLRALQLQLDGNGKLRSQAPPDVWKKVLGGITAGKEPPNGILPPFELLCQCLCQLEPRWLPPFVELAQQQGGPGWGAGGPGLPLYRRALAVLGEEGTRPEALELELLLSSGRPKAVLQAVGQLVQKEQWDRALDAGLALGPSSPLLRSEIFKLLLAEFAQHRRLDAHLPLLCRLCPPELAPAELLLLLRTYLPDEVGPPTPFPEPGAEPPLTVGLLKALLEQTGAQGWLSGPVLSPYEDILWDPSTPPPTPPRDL
UniProt P15428: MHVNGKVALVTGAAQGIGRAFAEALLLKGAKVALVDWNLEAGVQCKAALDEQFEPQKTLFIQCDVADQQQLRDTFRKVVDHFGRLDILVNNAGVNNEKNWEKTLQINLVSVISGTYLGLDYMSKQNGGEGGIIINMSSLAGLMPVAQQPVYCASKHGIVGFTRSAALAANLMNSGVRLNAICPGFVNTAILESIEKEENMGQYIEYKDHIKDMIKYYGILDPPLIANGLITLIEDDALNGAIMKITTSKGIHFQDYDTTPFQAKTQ
UniProt P13747, whole entry, looked up: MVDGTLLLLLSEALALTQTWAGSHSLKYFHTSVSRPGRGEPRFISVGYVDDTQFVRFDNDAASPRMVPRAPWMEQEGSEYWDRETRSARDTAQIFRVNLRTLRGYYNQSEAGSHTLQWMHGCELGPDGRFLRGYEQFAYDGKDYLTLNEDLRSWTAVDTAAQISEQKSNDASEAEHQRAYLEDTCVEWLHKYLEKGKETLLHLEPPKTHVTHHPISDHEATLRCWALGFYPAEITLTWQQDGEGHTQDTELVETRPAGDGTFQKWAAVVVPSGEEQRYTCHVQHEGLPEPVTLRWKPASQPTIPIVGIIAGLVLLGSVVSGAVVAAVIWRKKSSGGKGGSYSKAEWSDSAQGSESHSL
UniProt Q03933: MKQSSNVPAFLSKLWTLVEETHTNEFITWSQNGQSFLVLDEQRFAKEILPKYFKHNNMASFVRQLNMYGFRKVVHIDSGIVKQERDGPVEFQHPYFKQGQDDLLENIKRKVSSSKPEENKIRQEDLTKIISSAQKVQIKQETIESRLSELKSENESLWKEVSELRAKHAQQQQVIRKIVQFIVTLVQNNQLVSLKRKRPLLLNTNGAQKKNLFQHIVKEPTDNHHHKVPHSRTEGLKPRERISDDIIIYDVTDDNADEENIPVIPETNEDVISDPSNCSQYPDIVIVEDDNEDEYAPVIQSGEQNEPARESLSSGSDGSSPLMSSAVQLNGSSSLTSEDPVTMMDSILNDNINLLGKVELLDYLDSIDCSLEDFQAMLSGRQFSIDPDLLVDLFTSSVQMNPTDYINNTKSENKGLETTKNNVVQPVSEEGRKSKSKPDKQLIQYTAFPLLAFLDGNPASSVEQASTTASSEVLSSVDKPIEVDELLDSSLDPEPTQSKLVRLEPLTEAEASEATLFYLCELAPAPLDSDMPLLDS
UniProt P17483: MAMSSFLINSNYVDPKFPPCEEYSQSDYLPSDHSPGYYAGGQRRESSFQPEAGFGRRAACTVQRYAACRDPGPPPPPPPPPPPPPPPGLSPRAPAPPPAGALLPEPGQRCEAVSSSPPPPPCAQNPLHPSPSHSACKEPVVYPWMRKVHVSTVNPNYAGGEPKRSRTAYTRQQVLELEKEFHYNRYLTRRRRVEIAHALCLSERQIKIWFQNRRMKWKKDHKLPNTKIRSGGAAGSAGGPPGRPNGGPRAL
UniProt Q14469: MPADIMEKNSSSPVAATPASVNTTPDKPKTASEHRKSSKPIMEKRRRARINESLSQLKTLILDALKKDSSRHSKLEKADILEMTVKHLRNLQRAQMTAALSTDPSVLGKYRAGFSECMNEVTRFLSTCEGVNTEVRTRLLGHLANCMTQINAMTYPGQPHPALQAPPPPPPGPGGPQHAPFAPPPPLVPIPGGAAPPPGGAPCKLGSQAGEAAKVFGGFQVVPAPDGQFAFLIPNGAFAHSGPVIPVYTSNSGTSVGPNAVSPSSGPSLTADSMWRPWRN
UniProt Q15034: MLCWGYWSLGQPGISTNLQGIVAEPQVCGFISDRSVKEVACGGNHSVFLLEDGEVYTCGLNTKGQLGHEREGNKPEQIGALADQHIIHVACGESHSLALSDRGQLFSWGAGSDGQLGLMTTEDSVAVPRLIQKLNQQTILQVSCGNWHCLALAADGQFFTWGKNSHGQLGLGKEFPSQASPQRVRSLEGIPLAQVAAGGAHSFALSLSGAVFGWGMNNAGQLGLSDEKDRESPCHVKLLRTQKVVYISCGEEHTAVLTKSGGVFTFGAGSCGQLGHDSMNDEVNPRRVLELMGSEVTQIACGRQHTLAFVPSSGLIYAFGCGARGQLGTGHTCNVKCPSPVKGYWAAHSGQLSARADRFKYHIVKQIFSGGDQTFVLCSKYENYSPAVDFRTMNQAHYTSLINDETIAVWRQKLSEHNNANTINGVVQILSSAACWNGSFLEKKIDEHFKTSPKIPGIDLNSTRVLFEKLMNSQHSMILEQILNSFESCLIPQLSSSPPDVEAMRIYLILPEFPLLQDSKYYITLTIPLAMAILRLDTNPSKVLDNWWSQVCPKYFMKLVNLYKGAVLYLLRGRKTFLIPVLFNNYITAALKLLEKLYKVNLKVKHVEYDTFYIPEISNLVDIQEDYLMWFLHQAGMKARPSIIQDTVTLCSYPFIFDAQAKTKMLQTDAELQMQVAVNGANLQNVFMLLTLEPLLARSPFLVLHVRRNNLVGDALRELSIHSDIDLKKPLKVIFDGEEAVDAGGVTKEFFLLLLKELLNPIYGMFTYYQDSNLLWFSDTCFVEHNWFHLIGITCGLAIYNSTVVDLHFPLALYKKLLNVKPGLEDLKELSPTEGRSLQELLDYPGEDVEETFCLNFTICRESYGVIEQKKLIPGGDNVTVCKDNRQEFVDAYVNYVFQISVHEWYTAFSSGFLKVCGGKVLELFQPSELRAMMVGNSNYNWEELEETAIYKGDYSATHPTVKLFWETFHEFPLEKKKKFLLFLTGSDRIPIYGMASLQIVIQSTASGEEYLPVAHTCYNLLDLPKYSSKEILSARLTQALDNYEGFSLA
UniProt Q15011: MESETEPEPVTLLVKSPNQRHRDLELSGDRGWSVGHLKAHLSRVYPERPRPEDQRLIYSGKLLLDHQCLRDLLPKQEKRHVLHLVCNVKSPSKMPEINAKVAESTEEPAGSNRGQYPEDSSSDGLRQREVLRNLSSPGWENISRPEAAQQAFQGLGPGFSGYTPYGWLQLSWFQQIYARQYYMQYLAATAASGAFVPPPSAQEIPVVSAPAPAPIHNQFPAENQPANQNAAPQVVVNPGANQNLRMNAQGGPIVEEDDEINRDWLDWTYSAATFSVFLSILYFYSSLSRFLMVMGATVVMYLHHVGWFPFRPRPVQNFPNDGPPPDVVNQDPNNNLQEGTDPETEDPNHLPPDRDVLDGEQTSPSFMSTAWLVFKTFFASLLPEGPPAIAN
UniProt P50135: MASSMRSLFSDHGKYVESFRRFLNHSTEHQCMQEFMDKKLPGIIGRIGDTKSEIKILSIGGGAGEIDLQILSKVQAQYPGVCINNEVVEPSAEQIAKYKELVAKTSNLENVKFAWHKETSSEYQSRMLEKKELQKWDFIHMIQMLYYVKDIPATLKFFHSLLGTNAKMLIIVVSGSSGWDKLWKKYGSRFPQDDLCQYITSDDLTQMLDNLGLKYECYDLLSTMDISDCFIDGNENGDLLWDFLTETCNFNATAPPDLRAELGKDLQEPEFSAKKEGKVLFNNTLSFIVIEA
UniProt P04035: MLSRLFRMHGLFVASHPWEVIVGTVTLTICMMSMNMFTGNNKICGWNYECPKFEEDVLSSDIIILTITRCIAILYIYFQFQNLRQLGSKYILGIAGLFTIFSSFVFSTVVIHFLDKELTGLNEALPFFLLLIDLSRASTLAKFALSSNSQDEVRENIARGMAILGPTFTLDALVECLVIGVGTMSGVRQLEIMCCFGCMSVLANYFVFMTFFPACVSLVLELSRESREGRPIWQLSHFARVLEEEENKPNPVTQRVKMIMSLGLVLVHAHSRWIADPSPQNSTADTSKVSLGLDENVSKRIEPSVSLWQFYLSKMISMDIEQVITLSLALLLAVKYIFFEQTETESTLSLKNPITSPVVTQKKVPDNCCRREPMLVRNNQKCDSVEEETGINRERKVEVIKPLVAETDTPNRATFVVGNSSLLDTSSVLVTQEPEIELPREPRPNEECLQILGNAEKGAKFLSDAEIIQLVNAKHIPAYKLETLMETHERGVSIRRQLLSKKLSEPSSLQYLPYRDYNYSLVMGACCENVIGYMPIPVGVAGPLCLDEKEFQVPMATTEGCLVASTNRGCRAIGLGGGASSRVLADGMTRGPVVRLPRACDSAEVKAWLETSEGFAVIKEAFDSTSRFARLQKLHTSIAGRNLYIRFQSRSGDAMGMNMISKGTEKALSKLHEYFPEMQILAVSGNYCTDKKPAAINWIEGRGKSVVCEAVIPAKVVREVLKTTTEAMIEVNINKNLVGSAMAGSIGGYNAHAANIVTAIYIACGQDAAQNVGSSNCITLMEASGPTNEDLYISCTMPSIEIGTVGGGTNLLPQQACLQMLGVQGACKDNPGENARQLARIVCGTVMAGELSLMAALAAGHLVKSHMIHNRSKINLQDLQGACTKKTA
UniProt Q12766: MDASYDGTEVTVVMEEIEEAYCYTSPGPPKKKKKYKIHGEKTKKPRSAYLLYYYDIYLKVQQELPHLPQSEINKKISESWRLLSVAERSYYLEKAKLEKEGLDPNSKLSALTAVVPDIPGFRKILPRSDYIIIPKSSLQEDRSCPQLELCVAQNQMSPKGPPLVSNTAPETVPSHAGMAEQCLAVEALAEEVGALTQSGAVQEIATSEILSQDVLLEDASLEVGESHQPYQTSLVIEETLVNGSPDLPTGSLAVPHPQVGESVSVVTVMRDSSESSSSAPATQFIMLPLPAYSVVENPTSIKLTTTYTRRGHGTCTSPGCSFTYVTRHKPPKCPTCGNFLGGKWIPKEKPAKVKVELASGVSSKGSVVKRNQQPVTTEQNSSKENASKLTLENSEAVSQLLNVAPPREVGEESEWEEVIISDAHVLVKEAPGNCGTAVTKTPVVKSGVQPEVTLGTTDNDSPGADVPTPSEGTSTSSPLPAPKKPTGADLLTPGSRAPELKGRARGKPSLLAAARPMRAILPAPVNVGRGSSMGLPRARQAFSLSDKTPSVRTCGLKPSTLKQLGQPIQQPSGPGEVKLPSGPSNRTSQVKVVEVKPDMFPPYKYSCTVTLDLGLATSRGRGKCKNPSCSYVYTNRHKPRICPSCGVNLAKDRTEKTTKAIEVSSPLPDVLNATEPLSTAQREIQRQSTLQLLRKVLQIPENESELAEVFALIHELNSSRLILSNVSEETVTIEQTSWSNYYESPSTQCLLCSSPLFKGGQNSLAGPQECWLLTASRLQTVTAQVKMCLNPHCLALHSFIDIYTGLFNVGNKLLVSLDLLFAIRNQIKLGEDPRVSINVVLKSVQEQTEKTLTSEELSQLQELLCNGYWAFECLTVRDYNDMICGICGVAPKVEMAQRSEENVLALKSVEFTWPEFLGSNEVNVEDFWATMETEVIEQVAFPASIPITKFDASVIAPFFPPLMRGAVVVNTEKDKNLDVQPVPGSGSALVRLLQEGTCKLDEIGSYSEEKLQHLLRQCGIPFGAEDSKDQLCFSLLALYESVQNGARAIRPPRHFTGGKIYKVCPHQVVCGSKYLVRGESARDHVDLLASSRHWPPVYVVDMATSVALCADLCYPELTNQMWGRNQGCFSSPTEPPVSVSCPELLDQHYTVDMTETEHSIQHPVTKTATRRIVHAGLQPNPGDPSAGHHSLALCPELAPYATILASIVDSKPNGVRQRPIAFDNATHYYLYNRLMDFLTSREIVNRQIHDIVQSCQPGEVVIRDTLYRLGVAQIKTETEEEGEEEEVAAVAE

compound: c1cn2cc(-c3ccc4cn[nH]c4c3)nc(Nc3ccc(N4CCOCC4)cc3)c2n1 [entospletinib]; test: log2 fold change, soluble protein after heating vs DMSO (PISA); higher = thermal stabilisation; K562 lysate, 10 uM; active = over 0.2 and 3.5 SD of the protein, either way, in both replicates (recomputed)
Summary of the method: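 The values are log-two fold changes in thermal stability compared with solvent controls and come from duplicates. They were obtained by TMTpro 16plex LC-MS/MS, with channel sums equalised, on the supernatant after 21,000xg for 90 min. That supernatant came from crude K562 extract at 1 mg/mL protein treated with 10 μM compound for 30 min, heated for 3 min across 48°C-58°C, pooled and brought to 0.5% NP-40 at 4°C.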

log2 fold change, inactive:
HPS6 (UniProt Q86YV9) -0.021
HPGD (UniProt P15428) -0.113
HLA-E (UniProt P13747) -0.029
HSF2 (UniProt Q03933) 0.005
HOXB4 (UniProt P17483) -0.053
HLA-DRA -0.069
HES1 (UniProt Q14469) 0.05
HMGN5 (UniProt Q5JSK9) -0.187
HERC3 (UniProt Q15034) -0.12
HRAS (UniProt P01112) -0.051
HERPUD1 (UniProt Q15011) -0.183
HELLS (UniProt Q9NRZ9) 0.087
HSP90AA2P (UniProt Q14568) -0.132
HNRNPM (UniProt M0QZM1) 0
HNMT (UniProt P50135) 0.059
HMGCR isoform 3 (UniProt P04035) -0.122
HMGXB3 (UniProt Q12766) -0.045

2 neighbouring records from above:
log2 fold change, inactive:
HNRNPM (UniProt M0QZM1) 0
HNMT (UniProt P50135) 0.059
